Results are given in words; binding and its absence hold for the method and conditions named. Sequences can lack the tags named with a protein.
Target: MeGRXC3P65L (GAL4 DNA-binding domain fusion, MeGRXC3P65L:pGBKT7) (cassava (Manihot esculenta))
Experiment: two-hybrid; Matchmaker Gold system, yeast strain Y2HGold; MeGRXC3P65L:pGBKT7 as bait, TGA factors in pGADT7 as prey, pairwise co-transformed; growth on QDO/X/A (SD/-Ade/-His/-Leu/-Trp with 40 ug/mL X-alpha-Gal and 200 ng/mL Aureobasidin A)

binding: no binding
B1: Arabidopsis TGA4 (GAL4 activation domain fusion in pGADT7) (protein, UniProt Q39162 1-364)
chain: MNTTSTHFVPPRRFEVYEPLNQIGMWEESFKNNGDMYTPGSIIIPTNEKPDSLSEDTSHGTEGTPHKFDQEASTSRHPDKIQRRLAQNREAARKSRLRKKAYVQQLETSRLKLIHLEQELDRARQQGFYVGNGVDTNALSFSDNMSSGIVAFEMEYGHWVEEQNRQICELRTVLHGQVSDIELRSLVENAMKHYFQLFRMKSAAAKIDVFYVMSGMWKTSAERFFLWIGGFRPSELLKVLLPHFDPLTDQQLLDVCNLRQSCQQAEDALSQGMEKLQHTLAESVAAGKLGEGSYIPQMTCAMERLEALVSFVNQADHLRHETLQQMHRILTTRQAARGLLALGEYFQRLRALSSSWAARQREPT

From publication PMC8772167
